According to US12358899B2, “Thyroid hormone receptor agonists and uses thereof” (XIZANG HAISCO PHARMACEUTICAL CO., LTD., priority 2018, dated 2025):
For at least one compound, name, drawing or mass did not settle the structure.

Tested on: C57BL/6cnc mice
Assay: Synergistic effect of Example 7 with other NASH compounds in mouse model
Assay type: in vivo
Conditions: single agents, 2-week treatment
Source text: There are other candidates being developped for inflammation, metabolism syndromes or NASH These include glucagon-like peptide-1 (GLP-1) receptor agonist liraglutide, peroxisome proliferator-activated receptor-α and -β (PPAR-α/δ) agonist elafibranor, and nuclear erythroid 2-related factor 2 (NRF2) activator bardoxolone methyl (CDDO-Me). These candidates target different proteins and pathways, therefore have different mechanisms of action related to steatosis, inflammation, and fibrosis.
C57BL/6cnc mice were fed with high-fat diet containing 60 kacl % fat and 0.10% methionine (no added choline) (Research Diets, A06071302) for 12 weeks to induce NASH model. After 12-week diet induction, the mice had increased plasma levels of TC, LDL-c, ALT, and fibrosis markers. […] An Example 7 alone group and a vehicle group were also set up for controls. […] After 2-week treatment, serum biochemistry was measured; liver was collected to measure liver TC and TG. Livers were punched in 2 mm diameter and fixed, sectioned and stained with Sirius Red, and the fibrosis and steatosis were scored.

Row | Compound | liver weight, liver TC, liver TG, plasma TC, LDL-c, ALT, fibrosis, steatosis
1 | COC(=O)[C@]12CCC(C)(C)C[C@H]1[C@H]1C(=O)C=C3[C@@]4(C)C=C(C#N)C(=O)C(C)(C)[C@@H]4CC[C@@]3(C)[C@]1(C)CC2 [CDDO-Me, bardoxolone methyl] | reduced all or some of these parameters
2 | CCCCCCCCCCCCCCCC(=O)N[C@@H](CCC(=O)NCCCC[C@H](NC(=O)[C@H](C)NC(=O)[C@H](C)NC(=O)[C@H](CCC(N)=O)NC(=O)CNC(=O)[C@H](CCC(=O)O)NC(=O)[C@H](CC(C)C)NC(=O)[C@H](Cc1ccc(O)cc1)NC(=O)[C@H](CO)NC(=O)[C@H](CO)NC(=O)[C@@H](NC(=O)[C@H](CC(=O)O)NC(=O)[C@H](CO)NC(=O)[C@@H](NC(=O)[C@H](Cc1ccccc1)NC(=O)[C@@H](NC(=O)CNC(=O)[C@H](CCC(=O)O)NC(=O)[C@H](C)NC(=O)[C@@H](N)Cc1cnc[nH]1)[C@@H](C)O)[C@@H](C)O)C(C)C)C(=O)N[C@@H](CCC(=O)O)C(=O)N[C@@H](Cc1ccccc1)C(=O)N[C@H](C(=O)N[C@@H](C)C(=O)N[C@@H](Cc1c[nH]c2ccccc12)C(=O)N[C@@H](CC(C)C)C(=O)N[C@H](C(=O)N[C@@H](CCCNC(=N)N)C(=O)NCC(=O)N[C@@H](CCCNC(=N)N)C(=O)NCC(=O)O)C(C)C)[C@@H](C)CC)C(=O)O [Liraglutide] | reduced all or some of these parameters
